Reference: US20250249092A1 (TORAY INDUSTRIES, published 2025)
Positions count from the first letter of the chain named. No constants are given. Whether binding was seen depends on the method and setting. Some results given as binding are weak or reduced against the parent protein; the word gives no strength.

B1: Humanized monoclonal antibody #30 (antibody, human IgG1, V domains shown)
VH: GPDLVKPGASVKISCKASGYSFTAYYMHWVKQSHGKSLEWIGRVNPNNGGTTYNQKFKGKAILTVDKSSSTAYMELRSLTFEDSAVYYCARRIYYGYFDYWGQGTTVTVSS
VL: AFFAVSLGQRATISCKASQSVDYDGDSYMNWYQQKPGQPPKLLIYVASNLESGVPARFSGSGSGTDFTLNIHPVEEEDAATYYCQQSNEDPYTFGGGTKLEIKQ
B2: humanized anti-CAPRIN-1 antibody #63 (antibody, human IgG1, V domains shown)
VH: B1 VH
VL: B1 VL
B3: Humanized monoclonal antibody #9 (antibody, human IgG1, V domains shown)
VH: AVTLDESGGGLQTPGGALSLVCKASGFTFSGYDMLWVRQAPGKGLEWVAGIGSTGGGTDYGAAVKGRATISRDNGQSTVRLQLNNLRAEDTATYYCAKVAGGCNSGYCRDSPGSIDAWGHGTEVIVS
VL: AVTQQPASVSANPGETVKITCSGGGSRNYYGWYQQKSPGSVPVTVIYYDDQRPSNIPSRFSGALSGSTSTLTITGVQADDEAVYFCGSADSNTYEGSFGAGTTLTVL
B4: humanized anti-CAPRIN-1 antibody #42 (antibody, human IgG1, V domains shown)
VH: B3 VH
VL: B3 VL
B5: Humanized monoclonal antibody #13 (antibody, human IgG1, V domains shown)
VH: GAELVRSGASVKMSCKASGYSFTDYNMYWVKQTPGQGLEWIGYIYPGNGGTNYNQKFKGKATLTADTSSSTAYMQISSLTSEDSAVYFCARDYDDGGYAMDYWGQGTTVTVSS
VL: DIQMTQSPASLSASVGETVTITCRASGNIHNYLTWYQQKQGKSPQLLVYNAKTLADGVPSRFSGSGSGTQYSLKINRLQPEDFGSYYCQHFWNIPWTFGGGTKLNSR
B6: humanized anti-CAPRIN-1 antibody #46 (antibody, human IgG1, V domains shown)
VH: B5 VH
VL: B5 VL
B7: Humanized monoclonal antibody #14 (antibody, human IgG1, V domains shown)
VH: DAELVKPGASVKISCKASGYTFTDHSIHWVQQKPEQGLEWIGYISPGNGNIKYNEKFKGKATLTADKSSSTAYMQLNSLTSEDSAVYFCKRSLGRGGPYYFDYWGQGTTVTVSS
VL: DIVLTQAAPSLPVTPGESVSISCRSSKSLLHSNGNTYLYWFLQRPGQSPQLLIYRMSNLASGVPDRFSGSGSGTAFTLRISRVEAEDVGVYYCMQHREYPVTFGSGPN
B8: humanized anti-CAPRIN-1 antibody #47 (antibody, human IgG1, V domains shown)
VH: B7 VH
VL: B7 VL
B9: Humanized monoclonal antibody #19 (antibody, human IgG1, V domains shown)
VH: EVQLHQFGAELVKPGASVKISCKASGYTFTDYNMDWVKQSHGKSLEWIGDINPNYDSTSYNQKFKGKATLTVDKSSSTAYMELRSLTSEDTAVYYCARSRSYDYEGFAYWGQGTLVTVSA
VL: DIQMTQSPASLSASVGETVTITCRASGNIHNYLAWYQQKQGKSPQLLVYNAKTLADGVPSRFSGSGSGTQYSLKINSLQPEDFGSYYCQHFWSTLTFGAGTKLELKR
B10: humanized anti-CAPRIN-1 antibody #52 (antibody, human IgG1, V domains shown)
VH: B9 VH
VL: B9 VL
B11: humanized anti-CAPRIN-1 monoclonal antibody #2 (antibody, human IgG1, V domains shown)
VH: EQSLVESGGGLVQPGGSLRLSCAASGFSLSSHSLGWVRQAPGKGLEWIGDIRSGGSAYYANWAKGRFTISRDNSKNTLYLQMNSLRAEDTAVYYCTRTNGPSDLTNRLDLWGQGTLVTVSS
VL: QVLTQSPSSLSASVGDRVTINCQASQSLYNNENLAWFQQKPGKVPKRLIYGASTLASGVSSRFSGSGSGTEFTLTISSLQCEDFAIYYCLGEFSCGSADCFAFGGGTKVEIK
B12: Humanized monoclonal antibody #36 (antibody, human IgG1, V domains shown)
VH: B11 VH with Q2V, S3Q
VL: B11 VL
B13: Humanized monoclonal antibody #41 (antibody, human IgG1, V domains shown)
VH: B11 VH with Q2V, S3Q, Y94F
VL: EQVLTQSPSSLSASVGDRVTINCQASQSLYNNENLAWFQQKPGKVPKRLIYGASTLASGVSSRFSGSGSGTEFTLTISNLQPEDFAIYYCLGEFSCGSADCFAFGGGTKVEIK
B14: Humanized monoclonal antibody #38 (antibody, human IgG1, V domains shown)
VH: B11 VH with Q2V, S3Q
VL: B13 VL
B15: Humanized monoclonal antibody #37 (antibody, human IgG1, V domains shown)
VH: B11 VH with Q2V, S3Q, Y94F
VL: B11 VL
B16: humanized anti-CAPRIN-1 monoclonal antibody #6 (antibody, human IgG1, V domains shown)
VH: B11 VH
VL: B11 VL
B17: Humanized monoclonal antibody #39 (antibody, human IgG1, V domains shown)
VH: B11 VH with Q2V, S3Q, Y94F
VL: B13 VL with Q2I, I87T
B18: Humanized monoclonal antibody #40 (antibody, human IgG1, V domains shown)
VH: B11 VH with Q2V, S3Q
VL: B13 VL with Q2I, I87T

Biological target: T1, CAPRIN-1 protein on the cell membrane surface of cancer cells (UniProt Q14444)
T1 sequence (looked up): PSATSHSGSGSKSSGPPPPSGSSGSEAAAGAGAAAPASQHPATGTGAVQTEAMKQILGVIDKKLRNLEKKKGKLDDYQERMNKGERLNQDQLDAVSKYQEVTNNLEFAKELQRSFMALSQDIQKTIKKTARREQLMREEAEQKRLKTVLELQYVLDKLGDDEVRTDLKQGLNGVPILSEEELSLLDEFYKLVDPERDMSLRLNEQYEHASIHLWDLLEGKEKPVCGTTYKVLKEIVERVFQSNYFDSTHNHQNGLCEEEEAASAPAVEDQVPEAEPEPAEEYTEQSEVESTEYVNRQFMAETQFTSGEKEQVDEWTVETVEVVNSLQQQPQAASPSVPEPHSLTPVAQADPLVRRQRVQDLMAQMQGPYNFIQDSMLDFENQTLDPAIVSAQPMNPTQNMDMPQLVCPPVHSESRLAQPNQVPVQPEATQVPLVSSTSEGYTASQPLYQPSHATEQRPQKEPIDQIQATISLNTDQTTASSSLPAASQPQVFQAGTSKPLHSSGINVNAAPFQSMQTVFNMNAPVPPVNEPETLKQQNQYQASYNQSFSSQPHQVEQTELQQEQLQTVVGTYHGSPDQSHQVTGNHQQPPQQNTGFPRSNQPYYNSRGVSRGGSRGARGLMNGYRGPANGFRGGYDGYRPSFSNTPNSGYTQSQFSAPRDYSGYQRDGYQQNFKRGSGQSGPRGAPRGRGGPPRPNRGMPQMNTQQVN
Assay: flow cytometry

binding, binds:
B1, B2, B3, B4, B5, B6, B7, B8, B9, B10, B11, B12, B13, B14, B15, B16, B17, B18
